Results are given in words; binding and its absence hold for the method and conditions named. Binding seen in cells or lysates may run through a third protein. Here binding means that the protein was enriched with, or labelled near, the bait; the list need not be complete.
Molecular target: CCR4-NOT transcription complex subunit 7 (CNOT7) (human (endogenous in HCT116 and SW480)) (UniProt Q9UIV1)
Test: affinity purification with mass spectrometry; HCT116 lysate immunoprecipitated with IgG or CNOT7 antibody; gel strips digested, LC-MS/MS (Q Exactive Plus)

The chains behind the UniProt entries cited, without tags or fusion partners.
UniProt Q9UIV1: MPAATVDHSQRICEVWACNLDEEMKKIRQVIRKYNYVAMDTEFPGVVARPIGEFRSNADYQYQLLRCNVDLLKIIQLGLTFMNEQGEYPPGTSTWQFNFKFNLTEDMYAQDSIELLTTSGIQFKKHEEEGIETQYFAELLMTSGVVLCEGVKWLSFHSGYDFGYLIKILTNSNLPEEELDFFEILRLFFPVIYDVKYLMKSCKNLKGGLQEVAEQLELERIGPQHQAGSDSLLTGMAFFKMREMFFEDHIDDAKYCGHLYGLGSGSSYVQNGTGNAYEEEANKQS
UniProt P12956: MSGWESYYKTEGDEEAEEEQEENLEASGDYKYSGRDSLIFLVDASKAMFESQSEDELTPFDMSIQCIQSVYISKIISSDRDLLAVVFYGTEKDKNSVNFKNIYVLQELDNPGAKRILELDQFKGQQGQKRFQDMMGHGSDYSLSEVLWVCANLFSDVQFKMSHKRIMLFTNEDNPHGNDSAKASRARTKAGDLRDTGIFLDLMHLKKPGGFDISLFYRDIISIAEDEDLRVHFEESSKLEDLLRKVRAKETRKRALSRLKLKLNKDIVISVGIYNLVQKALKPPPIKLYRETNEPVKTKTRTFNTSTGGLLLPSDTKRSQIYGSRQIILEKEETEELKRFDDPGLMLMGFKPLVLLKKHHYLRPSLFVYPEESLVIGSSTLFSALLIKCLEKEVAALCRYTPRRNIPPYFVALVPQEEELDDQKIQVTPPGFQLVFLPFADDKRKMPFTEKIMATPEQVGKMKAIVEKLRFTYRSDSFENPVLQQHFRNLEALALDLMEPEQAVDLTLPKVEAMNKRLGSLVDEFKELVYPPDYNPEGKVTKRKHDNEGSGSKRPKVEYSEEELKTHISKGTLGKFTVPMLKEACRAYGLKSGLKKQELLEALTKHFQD
UniProt Q13263: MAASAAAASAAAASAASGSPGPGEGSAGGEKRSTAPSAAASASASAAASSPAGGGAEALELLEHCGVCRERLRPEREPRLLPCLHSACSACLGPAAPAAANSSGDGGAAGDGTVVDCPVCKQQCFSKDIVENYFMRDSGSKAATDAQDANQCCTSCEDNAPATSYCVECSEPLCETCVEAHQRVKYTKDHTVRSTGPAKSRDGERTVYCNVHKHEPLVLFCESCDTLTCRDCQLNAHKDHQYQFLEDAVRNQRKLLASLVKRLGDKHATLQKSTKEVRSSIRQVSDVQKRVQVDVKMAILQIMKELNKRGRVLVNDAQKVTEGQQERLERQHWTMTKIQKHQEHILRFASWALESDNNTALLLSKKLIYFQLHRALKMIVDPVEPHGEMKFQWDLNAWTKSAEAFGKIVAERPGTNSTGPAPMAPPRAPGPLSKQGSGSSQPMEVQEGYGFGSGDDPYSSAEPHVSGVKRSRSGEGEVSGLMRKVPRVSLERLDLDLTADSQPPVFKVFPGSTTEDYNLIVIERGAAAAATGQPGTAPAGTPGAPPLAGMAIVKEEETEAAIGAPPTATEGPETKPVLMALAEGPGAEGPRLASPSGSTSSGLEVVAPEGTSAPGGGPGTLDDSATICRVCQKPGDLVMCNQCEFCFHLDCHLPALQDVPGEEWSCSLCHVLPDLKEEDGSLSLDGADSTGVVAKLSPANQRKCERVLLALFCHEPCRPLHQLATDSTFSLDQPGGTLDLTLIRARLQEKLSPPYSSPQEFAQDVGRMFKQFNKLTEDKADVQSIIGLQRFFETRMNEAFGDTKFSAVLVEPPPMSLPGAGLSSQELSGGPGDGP
UniProt P19474: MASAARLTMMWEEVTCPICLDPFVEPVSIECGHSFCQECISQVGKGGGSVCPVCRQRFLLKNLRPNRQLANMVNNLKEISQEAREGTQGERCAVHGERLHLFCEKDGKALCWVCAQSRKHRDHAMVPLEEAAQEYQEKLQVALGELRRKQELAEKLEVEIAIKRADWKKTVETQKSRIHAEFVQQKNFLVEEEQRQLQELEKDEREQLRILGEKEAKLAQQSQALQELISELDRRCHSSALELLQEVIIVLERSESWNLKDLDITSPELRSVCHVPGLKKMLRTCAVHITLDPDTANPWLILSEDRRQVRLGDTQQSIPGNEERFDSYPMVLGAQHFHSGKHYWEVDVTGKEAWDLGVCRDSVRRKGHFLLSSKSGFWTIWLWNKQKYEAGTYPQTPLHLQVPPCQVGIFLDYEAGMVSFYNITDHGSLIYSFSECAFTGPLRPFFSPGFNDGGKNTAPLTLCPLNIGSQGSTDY

| Substance | binding |
| --- | --- |
| X-ray repair cross complementing 6 (XRCC6) (from UniProt P12956 1-609) | binds |
| TRIM28 (from UniProt Q13263 1-835) | binds |
| Tripartite motif containing 21 (TRIM21) (from UniProt P19474 1-475) | binds |

Source: article PMC12623751
